PubChem BioAssay AID504793 – Drosophila RNAi Screening Center | 2011

- Test: 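Knock-downs allowing continued mitosis even though DNA is damaged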 (primary screen)
- Cells: Drosophila S2R+ cells
- Reagent: long dsRNA against Drosophila genes, about 0.25 µg dsRNA per well
- Duration: 4 days of dsRNA, then 4 hours of drug before read-out
- Challenge: doxorubicin 0.5 µM for 4 hours to cause double-strand breaks, in cells also given a low, harmless dose of dsRNA against nbs to sensitise the assay
- Measurement: 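Mitotic index as the number of phospho-histone H3-positive cells in each well following doxorubicin, given as raw counts without normalisation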
- Direction: mitotic cells: higher = more cells in mitosis, weaker G2 arrest
- Active means: 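Genes are called active only when high mitotic counts were reproduced with independent dsRNAs and mitosis was checked for delay without damage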
- Calls: active = confirmed in follow-up tests; inactive = not confirmed
The screen tested about 23,000 reagents; below is an unselected part of those with a known target gene and a result. Over the whole deposit, 62 (0.27%) are marked active. 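Calls come from follow-up tests whose scores are not deposited, so confirmed genes may have low counts here; counts are not normalised per plate.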 Raw values vary from plate to plate and are shown uncorrected. Entries without a mark were called inactive. The numbers tell different reagents against one gene apart. Reagent sequences are not shown.

cGlr2 → mitotic cells, replicate 1 = 3
saturn #1 → mitotic cells, replicate 1 = 11
saturn #2 → mitotic cells, replicate 1 = 12
mRpS23 → mitotic cells, replicate 1 = 5
CG15306 #1 → mitotic cells, replicate 1 = 11
CG15306 #2 → mitotic cells, replicate 1 = 5
CG15306 #3 → mitotic cells, replicate 1 = 5
Su(fu) → mitotic cells, replicate 1 = 7
Lectin-galC1 → mitotic cells, replicate 1 = 5
CG12659 #1 → mitotic cells, replicate 1 = 12
CG12659 #2 → mitotic cells, replicate 1 = 6
CG12310 #1 → mitotic cells, replicate 1 = 5
CG12310 #2 → mitotic cells, replicate 1 = 6
Scr #1 → mitotic cells, replicate 1 = 15
Scr #2 → mitotic cells, replicate 1 = 3
Prm #1 → mitotic cells, replicate 1 = 11
Prm #2 → mitotic cells, replicate 1 = 7
Prm #3 → mitotic cells, replicate 1 = 16
Prm #4 → mitotic cells, replicate 1 = 6
eRF3 → mitotic cells, replicate 1 = 7
GCS2alpha → mitotic cells, replicate 1 = 12
Tg #1 → mitotic cells, replicate 1 = 6
Tg #2 → mitotic cells, replicate 1 = 1
Hmu #1 → mitotic cells, replicate 1 = 15
Hmu #2 → mitotic cells, replicate 1 = 6
hng3 #1 → mitotic cells, replicate 1 = 10
hng3 #2 → mitotic cells, replicate 1 = 2
CG9166 → mitotic cells, replicate 1 = 5
Ctu1 → mitotic cells, replicate 1 = 11
CG31556 (retired record) #1 → mitotic cells, replicate 1 = 7
CG31556 (retired record) #2 → mitotic cells, replicate 1 = 3
CG31556 (retired record) #3 → mitotic cells, replicate 1 = 4
CG6262 #1 → mitotic cells, replicate 1 = 9
CG6262 #2 → mitotic cells, replicate 1 = 9
BobA → mitotic cells, replicate 1 = 7
CG16820 → mitotic cells, replicate 1 = 9
spir #1 → mitotic cells, replicate 1 = 6
spir #2 → mitotic cells, replicate 1 = 7
spn-B #1 → mitotic cells, replicate 1 = 4
spn-B #2 → mitotic cells, replicate 1 = 8
CG31821 → mitotic cells, replicate 1 = 11
Coq7 → mitotic cells, replicate 1 = 6
LysS #1 → mitotic cells, replicate 1 = 4
LysS #2 → mitotic cells, replicate 1 = 10
